Measurements as given in patent publication US20220411487A1.
These are yes or no findings as the source states them, for the method shown. A result given as binding can be weak or reduced; the word gives no strength.

Chains of the proteins cited; added tags and fusions are not shown. Lines headed by an entry give the natural chain unless they say otherwise; changes in a name come on top.
UniProt Q8IU80: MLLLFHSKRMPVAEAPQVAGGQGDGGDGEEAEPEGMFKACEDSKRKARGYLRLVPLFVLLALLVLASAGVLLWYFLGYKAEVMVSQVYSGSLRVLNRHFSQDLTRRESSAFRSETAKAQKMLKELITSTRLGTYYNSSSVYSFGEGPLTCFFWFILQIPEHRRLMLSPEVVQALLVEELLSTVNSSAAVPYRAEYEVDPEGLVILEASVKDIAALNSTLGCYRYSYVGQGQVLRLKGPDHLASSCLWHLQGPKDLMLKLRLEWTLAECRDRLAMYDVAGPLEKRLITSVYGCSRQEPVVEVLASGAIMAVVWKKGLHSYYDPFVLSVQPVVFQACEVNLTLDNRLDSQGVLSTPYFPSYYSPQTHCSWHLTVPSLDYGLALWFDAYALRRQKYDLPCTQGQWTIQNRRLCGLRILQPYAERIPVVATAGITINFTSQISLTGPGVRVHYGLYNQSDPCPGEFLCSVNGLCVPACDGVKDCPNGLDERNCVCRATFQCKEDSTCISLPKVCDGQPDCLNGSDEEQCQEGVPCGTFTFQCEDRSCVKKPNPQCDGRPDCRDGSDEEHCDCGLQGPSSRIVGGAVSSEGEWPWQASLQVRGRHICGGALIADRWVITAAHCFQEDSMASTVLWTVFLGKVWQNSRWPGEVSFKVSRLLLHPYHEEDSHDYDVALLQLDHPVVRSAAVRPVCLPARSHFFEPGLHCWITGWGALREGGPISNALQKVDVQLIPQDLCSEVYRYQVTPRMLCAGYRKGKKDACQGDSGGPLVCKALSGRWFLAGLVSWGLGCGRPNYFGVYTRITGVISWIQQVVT

Target: full length human TMPRSS6 on HEK293 cells (HEK293/hTMPRSS6) (human) (UniProt Q8IU80)
Test: flow cytometry

Row | binding | Binder
1 | binds | REGN8023 (antibody, human IgG4 S228P, kappa, V domains shown) VH: EVQLVESGGGLVKPGGSLRISCAASGFIFVDYAMHWVRQAPGKGLEWVSGISWNSGSIGYADSVKGRFTISRDNAKKSLYLQMSGLRPEDTALYYCVKSGFYYVRSYFDNWGQGTLVTVSS VL: DIVMTQSPLSLPVTPGEPASISCRSSQSLLDSDDGNTYLDWYLRKPGQSPQLLIYTLSYRASGVPDRFSGSGSGTDFTLKISRVEADDVGVYYCMQRIEFPLTFGGGTKVEIKR
2 | binds | REGN7999 (antibody, human IgG4 S228P, kappa, V domains shown) VH: EVQLVESGGGLVQPGGSLRLSCAASGFTFSSYAMTWVRQAPGKGLEWVSAISGSDTSTYYADSVKGRFTISRDNSKNTLFLQMNSLRAEDTAVYYCAKHQDYDFSYYYSAMDVWGQGTTVTVSS VL: DIQMTQSPSSLSASVGDRVIITCRASQDFNSWLAWYQQKPGKAPKLLIYAASSLQSGVPSRFSGSGSGTDFTLTISSLQPEDFATYYCQQTDSFPFTFGPGTKVDIKR
